PubChem BioAssay AID504774 – Drosophila RNAi Screening Center, 2011

Aim: 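Fly genes whose loss alters survival after alkylation damage to DNA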 (primary screen)
System: Drosophila Kc167 cells
Reagent: long dsRNA against Drosophila genes, about 0.25 µg dsRNA per well
Time to read-out: about 6 days: 3 days knock-down, then 3 days with or without MMS
Treatment: methyl methanesulphonate 0.004% (w/v) for 3 days after knock-down
Detection: 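Viability in wells given MMS, read as ATP luminescence, normalised by quantiles plate by plate and averaged across replicates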
Direction: mean viability with MMS and viability with MMS: higher = more surviving cells after MMS
The screen tested about 23,000 reagents; this is an unselected part of those that have a named target and a result. 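Values are quantile-normalised luminescence on an arbitrary scale; higher means more cells surviving MMS.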 Reagents against one gene are numbered here.

mean viability with MMS	viability with MMS, replicate 1	viability with MMS, replicate 2	target gene	reagent no.
3.12e6	3.86e6	3.58e6	IntS1	1
3.44e6	3.91e6	3.90e6	cry	1
3.63e6	4.14e6	4.09e6	CG10621	1
3.54e6	4.03e6	4.01e6	mRpL22	1
3.63e6	4.05e6	4.20e6	Pcyt2	1
3.53e6	3.99e6	4.00e6	Sec31	1
3.59e6	4.05e6	4.08e6	CG15642	1
3.64e6	4.04e6	4.20e6	Grx5	1
3.43e6	3.99e6	3.76e6	CG4681	1
3.56e6	4.15e6	3.94e6	Spn28Dc	1
3.98e6	4.56e6	4.55e6	CYLD	1
3.37e6	4.01e6	3.98e6	CDK2AP1	1
3.20e6	3.68e6	3.70e6	hay	1
3.59e6	4.05e6	4.10e6	Ufsp1	1
3.58e6	3.95e6	4.07e6	yki	1
3.38e6	3.93e6	3.80e6	eco	1
3.83e6	4.47e6	4.18e6	alpha4GT2	1
3.48e6	3.96e6	3.95e6	CG9004	1
3.49e6	3.96e6	3.95e6	Tbc1d22	1
3.51e6	4.04e6	3.93e6	CG31915	1
3.57e6	4.04e6	4.04e6	meng	1
3.35e6	3.80e6	3.78e6	dac	1
2.86e6	3.62e6	3.58e6	CG17672	1
3.51e6	4.01e6	3.95e6	CG17672	2
3.48e6	3.92e6	3.97e6	CG13385	1
3.23e6	3.75e6	3.72e6	Hsf	1
3.48e6	3.94e6	3.99e6	Obp22a	1
3.15e6	3.51e6	2.85e6	enok	1
